Experimental data published in the supplement of paper PMC12823440, “Inhibitors supercharge kinase turnover through native proteolytic circuits” (Nature, 2025).
This is one part of the list. Hit calls seldom repeat between salt and free forms of one compound.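 Kinases were expressed as nanoluciferase fusions in K562 cells and luminescence was read every 4 h between 2 and 18 h as percent of control, DMSO set to 100% and a positive control to 0%. A time point counts as decreased when the signal drops significantly (2 sigma). The hit call is the authors' own, does not follow from the count of time points alone, and its rule is not shown.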

The chains behind the UniProt entries cited, without tags or fusion partners. Where a name states a change or a piece, a line headed by the entry shows the natural chain unless it says otherwise.
UniProt P07947, whole entry, looked up: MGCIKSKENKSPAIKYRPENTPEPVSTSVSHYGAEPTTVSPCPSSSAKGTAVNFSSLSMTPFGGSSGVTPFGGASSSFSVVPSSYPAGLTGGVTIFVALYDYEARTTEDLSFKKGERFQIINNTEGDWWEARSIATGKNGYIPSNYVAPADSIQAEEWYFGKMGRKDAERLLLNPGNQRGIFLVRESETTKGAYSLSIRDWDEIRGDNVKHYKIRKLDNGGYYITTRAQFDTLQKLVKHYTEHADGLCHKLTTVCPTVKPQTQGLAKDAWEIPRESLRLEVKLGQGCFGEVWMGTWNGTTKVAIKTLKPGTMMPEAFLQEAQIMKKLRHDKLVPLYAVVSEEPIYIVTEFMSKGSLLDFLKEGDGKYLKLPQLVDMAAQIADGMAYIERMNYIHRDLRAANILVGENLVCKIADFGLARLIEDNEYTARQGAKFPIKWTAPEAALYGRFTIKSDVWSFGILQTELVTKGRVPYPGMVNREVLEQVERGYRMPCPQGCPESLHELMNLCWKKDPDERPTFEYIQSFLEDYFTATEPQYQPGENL
UniProt P43403: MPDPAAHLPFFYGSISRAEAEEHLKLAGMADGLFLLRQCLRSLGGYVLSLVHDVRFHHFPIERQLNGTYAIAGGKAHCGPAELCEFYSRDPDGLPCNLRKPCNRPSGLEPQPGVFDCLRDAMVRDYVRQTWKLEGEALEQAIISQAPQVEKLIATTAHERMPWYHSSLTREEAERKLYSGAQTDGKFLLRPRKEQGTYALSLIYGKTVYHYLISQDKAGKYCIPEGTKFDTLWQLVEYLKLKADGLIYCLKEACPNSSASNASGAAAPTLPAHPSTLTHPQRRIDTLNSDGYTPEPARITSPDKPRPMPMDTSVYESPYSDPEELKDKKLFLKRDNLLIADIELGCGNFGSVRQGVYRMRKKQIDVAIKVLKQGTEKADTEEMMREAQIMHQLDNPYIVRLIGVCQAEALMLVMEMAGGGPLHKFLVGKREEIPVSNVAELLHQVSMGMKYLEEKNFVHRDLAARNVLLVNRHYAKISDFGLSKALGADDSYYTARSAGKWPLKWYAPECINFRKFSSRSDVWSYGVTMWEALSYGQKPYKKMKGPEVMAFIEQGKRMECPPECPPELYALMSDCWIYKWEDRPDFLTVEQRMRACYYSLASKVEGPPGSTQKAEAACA
UniProt P11802: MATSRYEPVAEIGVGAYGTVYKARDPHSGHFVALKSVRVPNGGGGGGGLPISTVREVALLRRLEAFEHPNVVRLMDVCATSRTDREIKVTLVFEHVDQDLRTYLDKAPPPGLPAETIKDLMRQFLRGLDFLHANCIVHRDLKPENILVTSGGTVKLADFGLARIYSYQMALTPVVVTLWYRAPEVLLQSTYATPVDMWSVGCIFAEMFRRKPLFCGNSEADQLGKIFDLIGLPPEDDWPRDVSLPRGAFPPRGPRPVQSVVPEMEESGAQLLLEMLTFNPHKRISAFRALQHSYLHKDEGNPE
UniProt P50613: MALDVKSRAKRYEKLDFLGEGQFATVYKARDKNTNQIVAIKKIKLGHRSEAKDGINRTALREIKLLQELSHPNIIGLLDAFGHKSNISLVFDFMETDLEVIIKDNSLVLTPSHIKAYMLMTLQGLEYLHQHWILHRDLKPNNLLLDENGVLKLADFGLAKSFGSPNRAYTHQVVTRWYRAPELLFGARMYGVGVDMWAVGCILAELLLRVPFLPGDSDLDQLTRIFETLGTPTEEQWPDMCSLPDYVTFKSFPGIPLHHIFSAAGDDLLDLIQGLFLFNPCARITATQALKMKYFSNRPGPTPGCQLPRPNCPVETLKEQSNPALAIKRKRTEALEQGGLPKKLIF
UniProt P50750, whole entry: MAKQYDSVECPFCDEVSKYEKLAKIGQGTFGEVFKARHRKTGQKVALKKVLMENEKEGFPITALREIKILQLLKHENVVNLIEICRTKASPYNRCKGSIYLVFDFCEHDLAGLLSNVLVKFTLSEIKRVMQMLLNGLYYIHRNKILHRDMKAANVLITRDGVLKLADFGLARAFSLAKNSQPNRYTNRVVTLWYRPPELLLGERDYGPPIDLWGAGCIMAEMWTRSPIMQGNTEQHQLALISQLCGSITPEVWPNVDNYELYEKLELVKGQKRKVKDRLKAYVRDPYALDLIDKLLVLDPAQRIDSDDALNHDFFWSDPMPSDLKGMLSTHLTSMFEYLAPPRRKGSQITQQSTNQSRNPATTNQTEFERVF

Experiments:
Settings in all cases: K562; 2-18 h
YES1 = YES1 (UniProt P07947); assay: number of time points (of 5) at which kinase-Nluc abundance scored as decreased, DMSO-normalised (count); higher = more persistent destabilization
ZAK = ZAK (UniProt Q9NYL2); assay: as above
ZAP70 = ZAP70 (UniProt P43403); assay: as above
CDK4 = CDK4 (UniProt P11802); assay: number of time points (of 4; 2 h point missing) at which kinase-Nluc abundance scored as decreased, DMSO-normalised (count); higher = more persistent destabilization
CDK7 = CDK7 (UniProt P50613); assay: as above
CDK9 = CDK9 (UniProt P50750); assay: as above

Nc1nc2c(nc(Br)n2[C@@H]2O[C@@H]3COP(=O)(O)O[C@H]3[C@H]2O)c(=O)[nH]1 [8-Bromo-cGMP (sodium)] (10 µM)
number of time points (YES1): 0 | number of time points (ZAK): 0 | number of time points (ZAP70): 0 | number of time points (CDK4): 0 | number of time points (CDK7): 0 | number of time points (CDK9): 0

Cc1cnc(NC(=O)c2cc(Oc3cnc(C(=O)N(C)C)nc3)c3cc(C)oc3c2)cn1 (10 µM)
number of time points (YES1): 0 | number of time points (ZAK): 0 | number of time points (ZAP70): 0 | number of time points (CDK4): 0 | number of time points (CDK7): 0 | number of time points (CDK9): 0

CC(C)=CCC/C(C)=C/CC/C(C)=C/C=C/C(C)=C/C(=O)O [Peretinoin] (10 µM)
number of time points (YES1): 0 | number of time points (ZAK): 0 | number of time points (ZAP70): 0 | number of time points (CDK4): 0 | number of time points (CDK7): 0 | number of time points (CDK9): 0

O=C(O)c1ccc(/C=C/S(=O)(=O)Cc2ccc(Cl)cc2)cc1 [Recilisib] (10 µM)
number of time points (YES1): 0 | number of time points (ZAK): 0 | number of time points (ZAP70): 0 | number of time points (CDK4): 0 | number of time points (CDK7): 0 | number of time points (CDK9): 0

Cn1c(CNc2cccc(C(=O)NCc3ccccc3C(F)(F)F)c2)nnc1-c1ccncc1 (10 µM)
number of time points (YES1): 0 | number of time points (ZAK): 0 | number of time points (ZAP70): 0 | number of time points (CDK4): 0 | number of time points (CDK7): 0 | number of time points (CDK9): 0

COc1cc2cc(Oc3ccc4ccc(=O)oc4c3)c(=O)oc2cc1O [Daphnoretin] (10 µM)
number of time points (YES1): 0 | number of time points (ZAK): 0 | number of time points (ZAP70): 0 | number of time points (CDK4): 0 | number of time points (CDK7): 0 | number of time points (CDK9): 0

O=C(NCCO)c1cc(C(=O)NCCO)cc(C(=O)NCCO)c1 (10 µM)
number of time points (YES1): 0 | number of time points (ZAK): 0 | number of time points (ZAP70): 0 | number of time points (CDK4): 0 | number of time points (CDK7): 0 | number of time points (CDK9): 0

O=c1cc(N2CCOCC2)oc2c(-c3ccc4c(c3)OCCO4)csc12 (2.5 µM)
number of time points (YES1): 0 | number of time points (ZAK): 0 | number of time points (ZAP70): 0 | number of time points (CDK4): 0 | number of time points (CDK7): 0 | number of time points (CDK9): 0

CCNC(=O)C#Cc1ccc2c(C(=Nc3ccc(CN(C)C)cc3)c3ccccc3)c(O)[nH]c2c1 (2.5 µM)
number of time points (YES1): 0 | number of time points (ZAK): 0 | number of time points (ZAP70): 0 | number of time points (CDK4): 0 | number of time points (CDK7): 0 | number of time points (CDK9): 0

COc1cc2ncnc(Nc3cccc(I)c3)c2cc1OC (2.5 µM)
number of time points (YES1): 0 | number of time points (ZAK): 0 | number of time points (ZAP70): 0 | number of time points (CDK4): 0 | number of time points (CDK7): 0 | number of time points (CDK9): 0

O=C(Nc1cccc(-c2nc(-c3ccc(NC(=O)c4cccnc4)cc3Cl)no2)c1)Nc1ccc(NC(=O)C2CC2)c(C(F)(F)F)c1 (2.5 µM)
number of time points (YES1): 0 | number of time points (ZAK): 0 | number of time points (ZAP70): 0 | number of time points (CDK4): 0 | number of time points (CDK7): 0 | number of time points (CDK9): 0

Cc1cccc(/C=N/Nc2cc(N3CCOCC3)n3nc(-c4ccncc4)cc3n2)c1 (10 µM)
number of time points (YES1): 0 | number of time points (ZAK): 0 | number of time points (ZAP70): 0 | number of time points (CDK4): 0 | number of time points (CDK7): 0 | number of time points (CDK9): 0

CCN(CC)CCOc1ccc(Nc2nc(-c3ccccc3NC(=O)CCN3CCN(C)CC3)nc3ccccc23)cc1 (2.5 µM)
number of time points (YES1): 0 | number of time points (ZAK): 0 | number of time points (ZAP70): 0 | number of time points (CDK4): 0 | number of time points (CDK7): 0 | number of time points (CDK9): 0

CNC(=O)c1cc2c(Oc3ccc(NC(=O)C4(C(=O)Nc5ccc(F)cc5)CC4)cc3)ccnc2cc1OC (2.5 µM)
number of time points (YES1): 1 | number of time points (ZAK): 1 | number of time points (ZAP70): 0 | number of time points (CDK4): 0 | number of time points (CDK7): 3 | number of time points (CDK9): 2

CNC(=O)c1ccc2c(c1)ncn2-c1ccc(CC(=O)OC(C)(C)C)cc1 (10 µM)
number of time points (YES1): 0 | number of time points (ZAK): 0 | number of time points (ZAP70): 0 | number of time points (CDK4): 0 | number of time points (CDK7): 0 | number of time points (CDK9): 0

Cc1cc(C(=O)NOCCO)c(Nc2ccc(I)cc2F)n(C)c1=O (10 µM)
number of time points (YES1): 0 | number of time points (ZAK): 0 | number of time points (ZAP70): 0 | number of time points (CDK4): 0 | number of time points (CDK7): 0 | number of time points (CDK9): 0

COc1ccc(-c2cc(=O)c3c(OC)cc(OC)c(OC)c3o2)cc1 [6-Demethoxytangeretin] (10 µM)
number of time points (YES1): 0 | number of time points (ZAK): 0 | number of time points (ZAP70): 0 | number of time points (CDK4): 0 | number of time points (CDK7): 0 | number of time points (CDK9): 0

CN1CCN(c2ccc(Nc3ncc4cc(C#N)c(=O)n(C5CCCC5)c4n3)cc2)CC1 (10 µM)
number of time points (YES1): 0 | number of time points (ZAK): 0 | number of time points (ZAP70): 0 | number of time points (CDK4): 0 | number of time points (CDK7): 0 | number of time points (CDK9): 0

c1ccc(Cn2c(-c3ccc(OC[C@H](C4CCNCC4)n4c(-c5ccccc5)nc5ccccc54)cc3)nc3ccccc32)cc1 [Deltarasin] (2.5 µM)
number of time points (YES1): 0 | number of time points (ZAK): 0 | number of time points (ZAP70): 0 | number of time points (CDK4): 0 | number of time points (CDK7): 0 | number of time points (CDK9): 0

CCc1c[nH]c2ncnc(N3CC[C@](N)(CNC(=O)c4ccc(F)cc4F)C3)c12 (10 µM)
number of time points (YES1): 0 | number of time points (ZAK): 0 | number of time points (ZAP70): 0 | number of time points (CDK4): 0 | number of time points (CDK7): 0 | number of time points (CDK9): 0

Cc1c(C)c(NCC(=O)N(C)C2CCN(Cc3ccc(C(N)=O)cc3)CC2)c(C)c(C)c1N (10 µM)
number of time points (YES1): 0 | number of time points (ZAK): 0 | number of time points (ZAP70): 0 | number of time points (CDK4): 0 | number of time points (CDK7): 0 | number of time points (CDK9): 0

NC1(C(=O)NCCCn2cc(-c3ccc(OC(F)(F)F)cc3)c3cc(CN4CCN(Cc5c(Cl)cccc5Cl)CC4)ccc32)CCNCC1 (2.5 µM)
number of time points (YES1): 1 | number of time points (ZAK): 0 | number of time points (ZAP70): 0 | number of time points (CDK4): 0 | number of time points (CDK7): 0 | number of time points (CDK9): 0

COc1ccc(S(=O)(=O)Nc2cc(-c3c(O)ccc4ccccc34)c(O)c3ccccc23)cc1 (10 µM)
number of time points (YES1): 0 | number of time points (ZAK): 0 | number of time points (ZAP70): 0 | number of time points (CDK4): 0 | number of time points (CDK7): 0 | number of time points (CDK9): 0
